For 3 molecules, binding results are on record in PMC3237451, “Missense Mutation in the Second RNA Binding Domain Reveals a Role for Prkra (PACT/RAX) during Skull Development”.

For one experiment, the target named is T1, FLAG-RAX (WT) (mouse) (UniProt Q9WTX2).
T1 sequence: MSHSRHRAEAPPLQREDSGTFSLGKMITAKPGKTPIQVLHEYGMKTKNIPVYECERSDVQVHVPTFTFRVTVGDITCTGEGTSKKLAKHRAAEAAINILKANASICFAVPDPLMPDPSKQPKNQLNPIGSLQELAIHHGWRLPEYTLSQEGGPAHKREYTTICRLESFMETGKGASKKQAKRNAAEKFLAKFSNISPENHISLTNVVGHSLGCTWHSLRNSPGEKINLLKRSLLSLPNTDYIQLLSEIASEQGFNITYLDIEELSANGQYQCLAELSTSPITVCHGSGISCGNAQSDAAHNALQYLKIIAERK
The experiment is described as follows: co-IP; FLAG-RAX immunoprecipitated with anti-FLAG M2 affinity gel from lysates (Triton X-100 lysis buffer) of unstressed or sodium arsenite treated L929 cells; micrococcal nuclease treatment (37°C, 30 min); western blot for endogenous PKR. Background: A western blot detects proteins with antibodies after separation by electrophoresis.

A further experiment addresses T2, FLAG-RAX (S130P) (mouse) (UniProt Q9WTX2).
T2 sequence: T1 sequence with S130P
Described as above.

The target in experiment [1] is T3, His-RAX (WT, recombinant 6xHis-tagged RAX) (mouse) (UniProt Q9WTX2).
T3 sequence: T1 sequence
The experiment is described as follows: pull-down; 2 µg purified 6xHis-tagged WT or mutant RAX incubated with lysate of L929 cells expressing FLAG-RAX or FLAG-RAX (S130P) in 20 mM Tris-HCl, 150 mM NaCl, 10 mM imidazole, 10% glycerol; pulled down with Ni-NTA agarose; micrococcal nuclease treatment (37°C, 30 min) to remove dsRNA-facilitated interactions; western blot; only the target purified.

For another experiment, the target named is T4, His-RAX (S130P) (Mus musculus (cDNA from L929 cells), UniProt Q9WTX2 1-313, S130P).
T4 sequence: T1 sequence with S130P
The experiment is described as above.

Substitutions are numbered along the chain they refer to. Names and notes keep the numbering of the source. Results are given in words; binding and its absence hold for the method and conditions named. Binding seen in cells or lysates may run through a third protein. Some entries that bind do so weakly or less than the wild type. Sequences can lack the tags named with a protein.

B1: PKR (interferon inducible, double-stranded RNA dependent protein kinase) (enzyme, UniProt Q03963 1-515)
chain: MASDTPGFYMDKLNKYRQMHGVAITYKELSTSGPPHDRRFTFQVLIDEKEFPEAKGRSKQEARNAAAKLAVDILDNENKVDCHTSASEQGLFVGNYIGLVNSFAQKKKLSVNYEQCEPNSELPQRFICKCKIGQTMYGTGSGVTKQEAKQLAAKEAYQKLLKSPPKTAGTSSSVVTSTFSGFSSSSSMTSNGVSQSAPGSFSSENVFTNGLGENKRKSGVKVSPDDVQRNKYTLDARFNSDFEDIEEIGLGGFGQVFKAKHRIDGKRYAIKRVKYNTEKAEHEVQALAELNHVNIVQYHSCWEGVDYDPEHSMSDTSRYKTRCLFIQMEFCDKGTLEQWMRNRNQSKVDKALILDLYEQIVTGVEYIHSKGLIHRDLKPGNIFLVDERHIKIGDFGLATALENDGKSRTRRTGTLQYMSPEQLFLKHYGKEVDIFALGLILAELLHTCFTESEKIKFFESLRKGDFSNDIFDNKEKSLLKKLLSEKPKDRPETSEILKTLAEWRNISEKKKRNTC
B1: the binding result with FLAG-RAX (WT) (mouse) and with FLAG-RAX (S130P) (mouse) was “binds” throughout.

B2: FLAG-RAX (WT) (protein, UniProt Q9WTX2 1-313)
chain: T1 sequence
On to B2, for which the binding result in experiment [1] is “binds”.

B3: FLAG-RAX (S130P) (protein, UniProt Q9WTX2 1-313)
chain: T1 sequence with S130P
On to B3, for which the binding result with His-RAX (S130P) is given as “binds”.
